Results deposited as PubChem BioAssay AID1259308 (NCATS, 2017).

- Purpose: 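Candidate targets for better recombinant protein yield in mammalian cells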 (primary screen)
- Cell system: human HEK293 embryonic kidney cells stably expressing firefly luciferase (HEK-CMV-Luc2-Hygro)
- Reagents: single siRNA against human genes, 0.8 pmol siRNA per well
- Timing: 72 h
- Read-out: 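Reporter luminescence and viable-cell signal on separate replicate plates, given as percent of non-targeting control and median/MAD z-scores, plus per-cell luciferase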
- Scale: total luciferase, z-score: higher = more reporter protein produced
- Hit rule: 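Active when the median/MAD z-score for overall luciferase is greater than 3; a gene was taken forward for validation with new siRNAs if at least two of its three siRNAs passed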
- Meaning of the calls: active = raised luciferase; inactive = no rise
This is an unselected part of about 59,000 reagents tested. In the full data, about 1,510 (2.6%) are marked active. 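Calls use total luciferase alone and ignore viability, so some active siRNAs may act by altering cell number.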 Entries without a mark were called inactive. Reagents against one gene are numbered here. Further read-outs or replicates are left out here. No sequences are given here.

Knock-down of SEPTIN12 #1 came out at: total luciferase, z-score -0.472.
SEPTIN12 #2 gave total luciferase, z-score -2.05.
After knock-down of SEPTIN12 #3, the record shows total luciferase, z-score -2.02.
With knock-down of ETV1 #1 the results were total luciferase, z-score -0.762.
With knock-down of ETV1 #2, the screen gave total luciferase, z-score 3.91 (active).
Silencing of ETV1 #3 resulted in: total luciferase, z-score 0.771.
Depletion of ABL2 #1 resulted in: total luciferase, z-score -0.0354.
ABL2 #2 showed total luciferase, z-score -0.2.
ABL2 #3 scored total luciferase, z-score 1.48.
For CDC42BPA #1 the deposit lists total luciferase, z-score 0.15.
CDC42BPA #2 showed total luciferase, z-score 0.787.
Knock-down of CDC42BPA #3 resulted in: total luciferase, z-score 0.776.
With knock-down of KIF21A #1, the screen gave total luciferase, z-score -0.192.
KIF21A #2 scored total luciferase, z-score -0.535.
Silencing of KIF21A #3 gave: total luciferase, z-score 1.2.
With knock-down of SLCO4C1 #1, the record shows total luciferase, z-score -0.407.
For SLCO4C1 #2, the entry reads total luciferase, z-score 1.2.
Silencing of SLCO4C1 #3 resulted in: total luciferase, z-score 0.26.
Against CCDC116 #1 the deposit lists total luciferase, z-score 0.105.
CCDC116 #2 showed total luciferase, z-score 0.344.
For CCDC116 #3, the entry reads total luciferase, z-score -0.00155.
SYNE2 #1 gave total luciferase, z-score 1.25.
Knock-down of SYNE2 #2 gave: total luciferase, z-score -0.321.
Against SYNE2 #3, the values are total luciferase, z-score -1.5.
After knock-down of ODAD1 #1 the results were total luciferase, z-score -0.488.
ODAD1 #2 scored total luciferase, z-score 1.71.
Against ODAD1 #3, the values are total luciferase, z-score 3.97 (active).
DSG3 #1 scored total luciferase, z-score 0.883.
DSG3 #2 scored total luciferase, z-score 0.389.
For DSG3 #3 the deposit lists total luciferase, z-score 0.256.
Depletion of GP5 #1 came out at: total luciferase, z-score 0.739.
Silencing of GP5 #2 gave: total luciferase, z-score 0.218.
GP5 #3 gave total luciferase, z-score 1.78.
For LMAN2L #1 the deposit lists total luciferase, z-score 0.816.
Silencing of LMAN2L #2 resulted in: total luciferase, z-score -0.195.
Depletion of LMAN2L #3 gave: total luciferase, z-score 0.0849.
Against ASB16 #1 the deposit lists total luciferase, z-score -0.712.
With knock-down of ASB16 #2 the results were total luciferase, z-score 0.476.
ASB16 #3 scored total luciferase, z-score -0.895.
CD9 #1 showed total luciferase, z-score -1.47.
With knock-down of CD9 #2, the record shows total luciferase, z-score -0.445.
CD9 #3 scored total luciferase, z-score 0.257.
